Measurements taken from the supplement of paper PMC7125110.
± gives the standard error. Many entries were measured with a wide error.

B1: glmS ribozyme (parent)
chain: AUAAAAGCGCCAGAACUACAGAAAUGUAGUUGACGAGGAGGAGGUUUAUCGAAUUUUCGGCGGAUGCCUCCAAA

Variants of: B1
Assay: kcat; higher = faster cleavage; RNA array
Conditions: with glucosamine-6-phosphate
Method in brief: (§1)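 A hybridised Cy3 probe tracked barcoded ribozyme variants, transcribed in situ by E. coli RNA polymerase on sequenced MiSeq chips, at 37 °C. The variants received 40 μM to 10 mM glucosamine-6-phosphate in HEPES/KCl/Mg(OAc)2 buffer. kobs came from decay fits and kcat and KM from weighted Michaelis–Menten fits.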

| Variant | kcat |
| --- | --- |
| G13A A53C | 0.000346 ± 0.00034 s⁻¹ |
| A12C G32U | 0.000616 ± 0.00035 s⁻¹ |
| A6U G43U | < 1e-05 s⁻¹ |
| C11U U46G | 0.000268 ± 4.3e-05 s⁻¹ |
| A15G C67U | 0.00805 ± 0.0041 s⁻¹ |
| A12U G29U G59U C68G C70A | 3.34e-05 ± 1.4e-05 s⁻¹ |
| C10U G44U G66A | 1.01e-05 ± 7.1e-06 s⁻¹ |
| C10A G62U C70G | 6.75e-05 ± 3.9e-05 s⁻¹ |
| G7U C61U C68G | 3.13e-05 ± 2.3e-05 s⁻¹ |
| A12C G37C | 8.54e-05 ± 2.4e-06 s⁻¹ |
| G7C U31C | < 1e-05 s⁻¹ |
| G13U C68G | 2.36e-05 ± 6.5e-06 s⁻¹ |
| A14U U69C | 0.000771 ± 0.0004 s⁻¹ |
| G7U C67G | < 1e-05 s⁻¹ |
| C11U C16U | 0.00296 ± 0.002 s⁻¹ |
| C11U C16A | 0.000174 ± 7e-06 s⁻¹ |
| C10A A14U A52U C70G | 0.000142 ± 0.0001 s⁻¹ |
| A12U C50U | 0.0012 ± 0.001 s⁻¹ |
| G13U G62U | < 1e-05 s⁻¹ |
| C11U U47A | 0.00344 ± 0.003 s⁻¹ |

| Variant | kcat |
| --- | --- |
| C8A G60A | < 1e-05 s⁻¹ |
| C11U G51U C70U | 5.97e-05 ± 4.5e-05 s⁻¹ |
| A12G A33U | 1.86e-05 ± 6.4e-06 s⁻¹ |
| C10A A64C C67G | 5.91e-05 ± 3.1e-05 s⁻¹ |
| A14G U30G | 0.021 ± 0.015 s⁻¹ |
| A14U G66C | 0.000139 ± 1.3e-05 s⁻¹ |
| A14U U56C | 0.000439 ± 0.00028 s⁻¹ |
| A12C G43U | 5.32e-05 ± 9.5e-07 s⁻¹ |
| C10A | < 1e-05 s⁻¹ |
| C10A G32A U47A | < 1e-05 s⁻¹ |
| C11A C50A C68G | 5.64e-05 ± 2.8e-05 s⁻¹ |
| G13A U54A | 0.000832 ± 0.00029 s⁻¹ |
| A14C G32C C71U | 0.000558 ± 0.00035 s⁻¹ |
| A14C G40C | 0.000718 ± 6.3e-05 s⁻¹ |
| A6G U65A | 7.49e-05 ± 1.1e-05 s⁻¹ |
| G13A C71A | 0.00132 ± 0.00098 s⁻¹ |
| A15C U69G | 3.35e-05 ± 1.8e-05 s⁻¹ |
| A6C C70A | 1.39e-05 ± 2.5e-06 s⁻¹ |
| A12U U69G | 0.000139 ± 1.8e-05 s⁻¹ |
| A14U C67U C68G | 2.91e-05 ± 2.7e-05 s⁻¹ |

| Variant | kcat |
| --- | --- |
| A12C G41U | 0.000937 ± 0.00053 s⁻¹ |
| A6C U31G | 2.39e-05 ± 9.7e-07 s⁻¹ |
| C11U G13U | 6.21e-05 ± 5.4e-06 s⁻¹ |
| A14U A42G | 0.0156 ± 0.0054 s⁻¹ |
| C10G C11G A33U C68G | 5.87e-05 ± 3.1e-05 s⁻¹ |
| G13U A15G G32A C70G | 9.35e-05 ± 2.2e-06 s⁻¹ |
| A14G U55A A64C C70U | 0.00107 ± 0.00068 s⁻¹ |
| A14G G41A | 0.00214 ± 0.0011 s⁻¹ |
| A12U A33U | 0.000444 ± 0.0001 s⁻¹ |
| A6G C16U A39C | 0.000121 ± 6.3e-05 s⁻¹ |
| A14G A52G | 0.00672 ± 0.0038 s⁻¹ |
| C10U A33G G38U C68U | 2.17e-05 ± 1.2e-05 s⁻¹ |
| A15C C50G | 3.85e-05 ± 3.4e-05 s⁻¹ |
| A6C U30G | 2.38e-05 ± 1.3e-05 s⁻¹ |
| G13A U47C | 8.51e-05 ± 5.3e-06 s⁻¹ |
| G13A U56A C67A U69G | 6.61e-05 ± 3.9e-05 s⁻¹ |
| A12C C67A | 0.00471 ± 0.0013 s⁻¹ |
| G7C G35A | < 1e-05 s⁻¹ |
| A14G C67U | 0.0205 ± 0.012 s⁻¹ |
| C10G A12G G38U C50A A52U | 1.78e-05 ± 9.3e-06 s⁻¹ |

Quoted from the listing:
A12U C50U – kcat: 0.0012 ± 0.001 s⁻¹
C10U G44U G66A – kcat: 1.01e-05 ± 7.1e-06 s⁻¹

Variants of: B1
Assay: KM; higher = weaker cofactor use; RNA array
Conditions: with glucosamine-6-phosphate
Method in brief: as §1

| Variant | KM |
| --- | --- |
| A12C G32U | 13800 ± 10000 µM |
| A6U G43U | 6890 ± 1100 µM |
| C11U U46G | 2460 ± 740 µM |
| A15G C67U | 1710 ± 1200 µM |
| A12C G37C | 6970 ± 420 µM |
| A14U U69C | 613 ± 530 µM |
| C11U C16U | 4590 ± 3800 µM |
| C11U C16A | 1760 ± 190 µM |
| C8A G60A | 86.3 ± 25 µM |
| A12G A33U | 2030 ± 1500 µM |
| A14G U30G | 1080 ± 990 µM |
| A14U G66C | 5220 ± 1100 µM |
| A12C G43U | 1200 ± 86 µM |
| C10A | 559 ± 95 µM |
| G13A U54A | 3140 ± 2000 µM |
| A14C G32C C71U | 7870 ± 7400 µM |
| A14C G40C | 3650 ± 530 µM |

| Variant | KM |
| --- | --- |
| A6G U65A | 2190 ± 1200 µM |
| G13A C71A | 68400 ± 58000 µM |
| A12U U69G | 437 ± 200 µM |
| A12C G41U | 1660 ± 1400 µM |
| A6C U31G | 3730 ± 510 µM |
| C11U G13U | 1020 ± 420 µM |
| A14U A42G | 2710 ± 1300 µM |
| G13U A15G G32A C70G | 405 ± 40 µM |
| A14G U55A A64C C70U | 2610 ± 2600 µM |
| A14G G41A | 367 ± 280 µM |
| A12U A33U | 3790 ± 1500 µM |
| A6G C16U A39C | 10000 ± 9900 µM |
| A14G A52G | 4400 ± 3100 µM |
| A6C U30G | 3640 ± 2600 µM |
| G13A U47C | 7300 ± 1000 µM |
| A12C C67A | 1180 ± 470 µM |
| A14G C67U | 1430 ± 1100 µM |

Nothing new here: entries from further up.

| Variant | KM |
| --- | --- |
| G13A U47C | 7300 ± 1000 µM |
| A12C C67A | 1180 ± 470 µM |

Variants of: B1
Assay: self-cleavage kobs at 160 uM GlcN6P; higher = faster cleavage; RNA array
Conditions: with glucosamine-6-phosphate
Method in brief: as §1

| Variant | self-cleavage kobs at 160 uM GlcN6P |
| --- | --- |
| C11U U46G | 2.02e-05 ± 1.8e-05 s⁻¹ |
| A12U C50U | 2.38e-05 ± 2.2e-05 s⁻¹ |
| G13U A15G G32A C70G | 2.86e-05 ± 1.7e-05 s⁻¹ |
| A12U A33U | 1.28e-05 ± 1.2e-05 s⁻¹ |

Variants of: B1
Assay: self-cleavage kobs at 10000 uM GlcN6P; higher = faster cleavage; RNA array
Conditions: with glucosamine-6-phosphate
Method in brief: as §1

| Variant | self-cleavage kobs at 10000 uM GlcN6P |
| --- | --- |
| G7U C61U C68G | 3.73e-05 ± 1.9e-05 s⁻¹ |

Variants of: B1
Assay: self-cleavage kobs at 640 uM GlcN6P; higher = faster cleavage; RNA array
Conditions: with glucosamine-6-phosphate
Method in brief: as §1

| Variant | self-cleavage kobs at 640 uM GlcN6P |
| --- | --- |
| G13U C68G | 1.87e-05 ± 1.7e-05 s⁻¹ |
| C10A A64C C67G | 6.02e-05 ± 3.8e-05 s⁻¹ |
| A14U G66C | 2.31e-05 ± 1.4e-05 s⁻¹ |
| A12C G43U | 1.85e-05 ± 1.7e-05 s⁻¹ |
| C11U G13U | 1.61e-05 ± 1.5e-05 s⁻¹ |
| A6G C16U A39C | 2.53e-05 ± 1.9e-05 s⁻¹ |
| C10U A33G G38U C68U | 3.19e-05 ± 3.1e-05 s⁻¹ |

Given field by field: part of the list above.
C11U G13U
  self-cleavage kobs at 640 uM GlcN6P = 1.61e-05 ± 1.5e-05 s⁻¹
A6G C16U A39C
  self-cleavage kobs at 640 uM GlcN6P = 2.53e-05 ± 1.9e-05 s⁻¹

Variants of: B1
Assay: self-cleavage kobs at 2500 uM GlcN6P; higher = faster cleavage; RNA array
Conditions: with glucosamine-6-phosphate
Method in brief: as §1

| Variant | self-cleavage kobs at 2500 uM GlcN6P |
| --- | --- |
| G13U C68G | 3.01e-05 ± 1.7e-05 s⁻¹ |
| C10A | < 1e-05 s⁻¹ |
| G13A C71A | 4.48e-05 ± 2.8e-05 s⁻¹ |
| A6G C16U A39C | 2.07e-05 ± 1.2e-05 s⁻¹ |
| G13A U47C | 2.2e-05 ± 2e-05 s⁻¹ |
| G13A U56A C67A U69G | 5.56e-05 ± 3.3e-05 s⁻¹ |

Variants of: B1
Assay: self-cleavage kobs at 40 uM GlcN6P; higher = faster cleavage; RNA array
Conditions: with glucosamine-6-phosphate
Method in brief: as §1

| Variant | self-cleavage kobs at 40 uM GlcN6P |
| --- | --- |
| C10A A14U A52U C70G | 2.94e-05 ± 2.6e-05 s⁻¹ |
